Among the data in publication PMC10115881, “Disrupting the α-synuclein-ESCRT interaction with a peptide inhibitor mitigates neurodegeneration in preclinical models of Parkinson’s disease” (Nature Communications, 2023) are binding values, retold here.

The target of the test is Flag-CHMP2B (CHarged Multivesicular body Protein 2B) (UniProt Q9UQN3). Nature of the test: co-IP; HEK293T co-transfected with Flag-tagged target protein, HA-tagged source protein and GFP-tagged peptide or GFP; lysed after 48 h in RIPA buffer; precipitated with Flag beads; immunoblot. Background: Immunoblotting shows a protein as a band on a membrane.

No constants are given. Whether binding was seen depends on the method and setting. Binding seen in cells or lysates may run through a third protein. Some entries that bind do so weakly or less than the wild type. Tags and fused reporters may be left off the sequences shown.

For IPIQLKA [GFP-PDpep1 (IPIQLKA)], the binding entry is on record as “binds”. Under DEEIERQLKALG [GFP-PDpep1.3 (…)] stands “binds”.
